Values from PubChem BioAssay AID1508597 (Cure First, 2020).

Purpose: 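Survival screen with siRNA in ovarian cancer cells derived from patients, with or without rucaparib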 (primary screen)
Cells: human ovarian carcinoma lines grown from tumours: OCI-P5x (papillary serous) and OCI-C5x (clear cell)
Knock-down reagent: siRNA pool against human genes, 1.25 pmol siRNA per well
Duration: 72 h or 96 h, depending on the cell culture
Conditions: rucaparib 20 µM (about IC30) or vehicle, present until read-out
Rucaparib or vehicle: Rucaparib
Cell line: OCI-P5x (serous)
Detection: 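ATP luminescence measured at 72 or 96 h according to the culture, then normalised and expressed as percent viability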
Scale: viability, normalised: higher = more viable cells remaining
Call rule: 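Active when normalised viability falls below 80 percent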
Calls: active = viability under 80%; inactive = viability 80% or more
Shown is a random part of the about 2,100 reagents, in one setting of the screen. 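Calls flag viability under 80% in either arm, not effects specific to rucaparib; the reference for percent is not stated.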 A number with no mark means an inactive call. Reagent sequences are not shown. Not given: the 100% reference.

gene	technical replicate	viability, normalised (%)
CUL3	1	84.3
CUL3	2	81.8
CUL3	3	83.8
SALL1	1	51.1 (active)
SALL1	2	50.1 (active)
SALL1	3	51.1 (active)
CCT2	1	60.7 (active)
CCT2	2	69.1 (active)
CCT2	3	63.7 (active)

Hits, among the entries above:
gene	technical replicate	viability, normalised (%)
SALL1	1	51.1 (active)
SALL1	2	50.1 (active)
SALL1	3	51.1 (active)
CCT2	1	60.7 (active)
CCT2	2	69.1 (active)
CCT2	3	63.7 (active)

Continued.
gene	technical replicate	viability, normalised (%)
GNAT1	1	48.8 (active)
GNAT1	2	50.5 (active)
GNAT1	3	45.5 (active)
NME2	1	34.8 (active)
NME2	2	33.7 (active)
NME2	3	62.3 (active)
RPS6KC1	1	83.4
RPS6KC1	2	66 (active)
RPS6KC1	3	83.3
HIRA	1	63.4 (active)
HIRA	2	58.4 (active)
HIRA	3	65.9 (active)
SAP130	1	45.8 (active)
SAP130	2	70.8 (active)
SAP130	3	52.8 (active)
